Results: publication PMC12370185
The other results are listed elsewhere or left out. At the low end of the ranking the order means little.

Test system: SOX2 + histone octamer
Assay: Pioneer-seq (competitive nucleosome EMSA with sequencing)
Settings: 10 mM Tris-Cl pH 7.5, 50 mM NaCl, 1 mM DTT, 0.25 mg/ml BSA, 2 mM MgCl2, 0.025% Nonidet P-40, 5% glycerol; 28 nM nucleosome library; 10 min on ice then 30 min …; high values mean tight binding; double strand, one strand shown

Row | Sequence | binding signal (log2 relative supershift)
1 | GATGGACCCTATACGCGGCCCAGGCTGTAGATGTTCCAGGCTCCCCACTGAGGTATCACAGAAGGCTGGGTGGGGAGCTGGCACTTTCATCCTCACCAGTTGATAGTAAGAACCTCCCTCTTCTACGCTGGTACCCATGAAGACCATGTGGGTAGCCTGGACTCCACTCCCACCTGGTGGTAACAAGGCAACCTATCACCAGTGTCAGTGTGCCAGTCGGATAGTGTTCC | -0.294
2 | GATGGACCCTATACGCGGCGGAGAGGAAGCCATCAGCGTAGCCATGGTGAGCTTTATCTTTCCCACCCTCGGAAGCACAGACATGGCCCGGCACGTGGCTCACGCCTGTAATCCCAACAGTTTGGGAAGCTGAGGCACGAGGATCGCTTGAGTTCACGAGTCAAGAGTTGGAGACCAGCCTGGGCAACATGGCGACACCTTGTCTGTACTTGCCAGTCGGATAGTGTTCC | -0.152
3 | GATGGACCCTATACGCGGCGTATTTGTGCGTGTGTGTGTCTGAGGGTCTGTGTGCATGTGTGTATGTGCTCATGGGTGTGCATTTGTGCACGTGTGTGTGAGTGGCCCAAATGGGCACGCACTGTGTGTCCAGCACACATTGGTTCCCCCATCCCCCTGCACCCCACCCCATCTCCACCCCCCAGGACTTCATACCCATTACCCATGTGCTGCCAGTCGGATAGTGTTCC | -0.424
4 | GATGGACCCTATACGCGGCATAGATGGAGAGGATTTCAAGTGATGTTTTCTGAAGATGGTTCTGTTGTCCCGGGAGAGCCCTTGGCGGACATGGTAGTGCCAGTCAGAGCCCTTGACGCTGTGCAGCCAGGTGGCTTATTGTCCCAGTGACTTTCCAACCAGATACTCTCAGTCAGAGTGAAGGGCTCCACTTAGAAACTCCCTTTCCCATGCCAGTCGGATAGTGTTCC | -0.19
